# Test results reported in paper PMC7396582.
# No constants are given. Whether binding was seen depends on the method and setting. Binding seen in cells or lysates may run through a third protein. Here binding means that the protein was enriched with, or labelled near, the bait; the list need not be complete.
# T1: M6a-loops (rat) (UniProt Q812E9)
# T1 sequence (chain, biotin on the BAP (sec-BirA from the pBig plasmid)): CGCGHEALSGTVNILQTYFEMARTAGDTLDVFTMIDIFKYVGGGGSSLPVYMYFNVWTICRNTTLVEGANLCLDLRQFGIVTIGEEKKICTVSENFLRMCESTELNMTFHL
# Target: T1, M6a-loops (rat)
# Test: affinity purification with mass spectrometry; M6a-loops (10-25 ug, from concentrated supernatant) held by anti-SV5-mAb cross-linked to protein A magnetic beads (1 h, room temperature); incubated with clarified pooled rat hippocampi extract (P14, P21, P30; 1% Triton X-100 in PBS; 200-350 ug) overnight at 4 C; washed three times with PBS-T; eluted in SDS buffer with DTT; TMT/MS; mock: M6a-loops with protein A beads without anti-SV5; three co-IPs with two replicates each
row,binding,Binder
1,binds,"Vapa (protein, UniProt Q9Z270 1-249) MASASGAMAKHEQILVLDPPSDLKFKGPFTDVVTTNLKLQNPSDRKVCFKVKTTAPRRYCVRPNSGVIDPGSIVTVSVMLQPFDYDPNEKSKHKFMVQTIFAPPNISDMEAVWKEAKPDELMDSKLRCVFEMPNENDKLNDMEPSKAVPLNASKQDGPLPKPHSVSLNDTETRKLMEECKRLQGEMMKLSEENRHLRDEGLRLRKVAHSDKPGSTSAVSFRDNVTSPLPSLLVVIAAIFIGFFLGKFIL"
2,binds,"Slc17a7 (protein, UniProt Q62634 1-560) MEFRQEEFRKLAGRALGRLHRLLEKRQEGAETLELSADGRPVTTHTRDPPVVDCTCFGLPRRYIIAIMSGLGFCISFGIRCNLGVAIVSMVNNSTTHRGGHVVVQKAQFNWDPETVGLIHGSFFWGYIVTQIPGGFICQKFAANRVFGFAIVATSTLNMLIPSAARVHYGCVIFVRILQGLVEGVTYPACHGIWSKWAPPLERSRLATTAFCGSYAGAVVAMPLAGVLVQYSGWSSVFYVYGSFGIFWYLFWLLVSYESPALHPSISEEERKYIEDAIGESAKLMNPVTKFNTPWRRFFTSMPVYAIIVANFCRSWTFYLLLISQPAYFEEVFGFEISKVGLVSALPHLVMTIIVPIGGQIADFLRSRHIMSTTNVRKLMNCGGFGMEATLLLVVGYSHSKGVAISFLVLAVGFSGFAISGFNVNHLDIAPRYASILMGISNGVGTLSGMVCPIIVGAMTKHKTREEWQYVFLIASLVHYGGVIFYGVFASGEKQPWAEPEEMSEEKCGFVGHDQLAGSDESEMEDEVEPPGAPPAPPPSYGATHSTVQPPRPPPPVRDY"
3,binds,"Rnpep (protein, UniProt O09175 1-650) MESSGPSSCHSAARRPLHSAQAVDVASASSFRAFEILHLHLDLRAEFGPPGPGPGSRGLNGKATLELRCLLPEGASELRLDSHSCLEVMAATLLRGQPGDQQQLTEPVPFHTQPFSHYGQALCVVFPKPCCAAERFRLELTYRVGEGPGVCWLAPEQTAGKKKPFVYTQGQAVLNRAFFPCFDTPAVKCTYSALVEVPDGFTAVMSASTWERRGPNKFFFQMSQPIPSYLIALAIGDLASAEVGPRSRVWAEPCLIEAAKEEYNGVIEEFLATGEKLFGPYVWGRYDLLFMPPSFPFGGMENPCLTFVTPCLLAGDRSLADVIIHEISHSWFGNLVTNANWGEFWLNEGFTMYAQRRISTILFGAAYTCLEAATGRALLRQHMDVSGEENPLNKLRVKIEPGVDPDDTYNETPYEKGYCFVSYLAHLVGDQEQFDKFLKAYVDEFKFQSILAEDFLEFYLEYFPELKKKGVDSIPGFEFNRWLNTPGWPPYLPDLSPGDSLMKPAEELAELWAASEPDMQAIEAVAISTWKTYQLVYFLDKILQKSPLPPGNVKKLGETYPKISNAQNAELRLRWGQIILKNDHQEEFWKVKDFLQSQGKQKYTLPLYHAMMGGSEMARTLAKETFSATASQLHSNVVNYVQQILAPKGS"
4,binds,"Mog (protein, UniProt Q63345 28-245) GQFRVIGPGHPIRALVGDEAELPCRISPGKNATGMEVGWYRSPFSRVVHLYRNGKDQDAEQAPEYRGRTELLKESIGEGKVALRIQNVRFSDEGGYTCFFRDHSYQEEAAVELKVEDPFYWINPGVLALIALVPMLLLQVSVGLVFLFLQHRLRGKLRAEVENLHRTFDPHFLRVPCWKITLFVIVPVLGPLVALIICYNWLHRRLAGQFLEELRNPF"
